Data reported in PubChem BioAssay AID1439 (NMMLSC, 2008).
Out of some 220,000 compounds screened, about 770 (0.35%) were called active. Inconclusive results, whose numbers are uncertain, are shown with a selection of clear calls. No stated cut-off is given here; in the data, active means binding response below about 49% or above about 150%; inconclusive means no clear call, values can overlap the other calls; inactive means in between.

Protein sequences, listed by entry. Tags and fused reporters are not part of them.
UniProt P09471, whole entry, looked up: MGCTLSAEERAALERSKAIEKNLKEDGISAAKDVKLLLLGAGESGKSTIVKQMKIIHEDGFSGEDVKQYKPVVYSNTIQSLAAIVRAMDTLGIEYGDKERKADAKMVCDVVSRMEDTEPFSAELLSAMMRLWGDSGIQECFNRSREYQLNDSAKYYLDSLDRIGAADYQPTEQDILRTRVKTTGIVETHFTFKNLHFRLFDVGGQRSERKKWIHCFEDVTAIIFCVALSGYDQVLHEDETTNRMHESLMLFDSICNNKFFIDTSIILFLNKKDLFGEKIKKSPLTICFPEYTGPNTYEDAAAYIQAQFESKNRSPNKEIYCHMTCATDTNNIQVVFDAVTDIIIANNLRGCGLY

Biological target: Guanine nucleotide-binding protein G(o) subunit alpha (Homo sapiens) (UniProt P09471)
Experiment: RGS7-Galphao binding modulators, primary screen, biochemical, multiplexed bead flow cytometry (AID 1439);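 further: fluorescent Galphao held in activated GDP-AlF4 state binding bead-coupled RGS7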
Conditions: at 10 µM, actives lie on both sides

| Compound | binding response (% of control) |
| --- | --- |
| O=C1C=C(O)C(n2cncn2)C(c2ccc(F)cc2)C1 (stereo unspecified) | inconclusive: 118% |
| CCC(=O)OC1(C)C(=O)C2=COC(c3ccc(OC)cc3)=CC2=C(Br)C1=O (stereo unspecified) | inconclusive: 83.9% |
| S=c1[nH]nc(-c2ccccc2)n1/N=C/C=C/c1ccco1 | inactive: 87.6% |
| CC1=NNC(=O)C1C(c1ccc(Cl)cc1)C(C#N)C#N (stereo unspecified) | inconclusive: 93% |
| CC(C)(C)OC(=O)N/N=C/c1cccn1-c1ccc([N+](=O)[O-])cc1 | inconclusive: 174% |
| COc1ccc(CNC(=O)C(C)N2C(=O)COc3ccc(C)cc32)c(OC)c1 (stereo unspecified) | inconclusive: 78.7% |
| CC1Cc2ccccc2N1C(=O)CCS(=O)(=O)c1cccs1 (stereo unspecified) | active: 322% [activator] |
| Nc1ccc(Cl)c(S(=O)(=O)Nc2ccc(Cl)cc2)c1 | inconclusive: 470% |
| O=C(N/N=C/c1ccc(Cl)cc1)C(=O)N1CCCCCC1 | inactive: 103% |
| O=C(Nc1ccc(N2CCOCC2)cc1)c1nc2ccccc2s1 | inconclusive: 75.7% |
| CCOC(=O)C(C(=O)OCC)C(C[N+](=O)[O-])c1ccccc1 (stereo unspecified) | inconclusive: 80.8% |
| CC(c1nc2ccccc2c(=O)[nH]1)N(C)CCOc1ccc(Cl)cc1 (stereo unspecified) | inconclusive: 67.7% |
| CN1CCCN(C(=O)CC2(CC(=O)O)CCCCC2)CC1 | inconclusive: 86.5% |
| Cc1nc(CCNC(=O)c2cc(COc3ccc(F)cc3Cl)on2)sc1C | inconclusive: 108% |
| Cc1cc(F)ccc1NC(=O)C(C)n1c2ccccc2c2nc(=O)cc(C)n21 (stereo unspecified) | inconclusive: 180% |
| COC(=O)COc1cccc2c(=O)n(CC(=O)N3CCCCC3)ccc12 | inconclusive: 97.9% |
| CC1CN(c2nnc(-c3ccccc3)c3ccccc23)CC(C)O1 (stereo unspecified) | inconclusive: 97.3% |
| Nc1c(-c2ccc(Cl)cc2)cnn1-c1cc(C(F)(F)F)cc(C(F)(F)F)c1 | inconclusive: 86.3% |
| Cc1cc(=O)n2c(C(=O)Nc3ccc(C(=O)OC(C)C)cc3)c(C(=O)Nc3ccccc3)sc2n1 | inconclusive: 70.3% |
| O=S(=O)(NC1=NCCCCC1)c1ccc2sc(NS(=O)(=O)c3ccc4ccccc4c3)nc2c1 | inconclusive: 59.9% |
| Cc1ccccc1CSc1nn2c(=O)c(C)nnc2s1 | active: 211% [activator] |
| COC(=O)c1sc2nc(CSc3ccc(Br)cc3)[nH]c(=O)c2c1C | inconclusive: 139% |
| Cc1oc(C)c(C(=O)O)c1C(=O)O | inconclusive: -24.9% |

Retrieved one by one from above:

| Compound | binding response (% of control) |
| --- | --- |
| CC(c1nc2ccccc2c(=O)[nH]1)N(C)CCOc1ccc(Cl)cc1 (stereo unspecified) | inconclusive: 67.7% |
| Cc1nc(CCNC(=O)c2cc(COc3ccc(F)cc3Cl)on2)sc1C | inconclusive: 108% |

(continued)

| Compound | binding response (% of control) |
| --- | --- |
| CCc1ccc(NC(=O)C2CCCN(S(=O)(=O)c3c(C)[nH]c(=O)[nH]c3=O)C2)cc1 (stereo unspecified) | inconclusive: 103% |
| Cc1cc(NC(=S)N(Cc2ccc(Br)cc2)Cc2ccc(C(=O)O)cc2)ccc1Cl | inactive: 98.5% |
| C/C(=N\NC(=O)c1c[nH]c2ccccc12)c1ccccn1 | inconclusive: 86.6% |
| COC(=O)/C=C1/SC(=NC(=O)c2ccc(F)cc2)NC1=O | inconclusive: -168% |
| O=c1[nH]c(-c2ccccc2)nnc1-c1ccccc1 | inconclusive: 103% |
| CCCCN(C)CCNC(=O)C(NC(=O)C1CCC(C)CC1)C(C)C (stereo unspecified) | inactive: 99.7% |
| Cc1nc(-c2nnc(-c3ccccc3)o2)c(C(F)(F)F)o1 | inconclusive: 47.4% |
| CCOC(=O)c1cc(-c2csc(-c3ccc(C(F)(F)F)cc3)n2)on1 | inconclusive: 392% |
| Cc1nc(CN2CCCCC2)cc(=O)[nH]1 | inactive: 94% |
| Cc1ccc2cc(NC(=O)c3cccc(F)c3)ccc2n1 | inconclusive: 38.3% |
| O=C(CSc1ncnc2ccccc12)Nc1cccc(S(=O)(=O)N2CCOCC2)c1 | inconclusive: 110% |
| Cc1ccc(S(=O)(=O)NNC(=S)Nc2c(Cl)cccc2Cl)cc1 | inconclusive: 86.7% |
| O=C(CSc1n[nH]c(=O)n1C1CC1)c1ccc2c(c1)OCCO2 | inconclusive: 49.7% |
| N#CC1CN(Cc2ccccc2)CN(Cc2ccccc2)C1 | inconclusive: -245% |
| COc1ccc(-c2[nH]ncc2CN(C)Cc2cnccn2)c(OC)c1 | inconclusive: 102% |
| O=C(Nc1ccc(SC(F)F)cc1)c1ccc(F)cc1 | inactive: 97.1% |
| C/C(=C/CCC(C)C1CCC2(C)C3CCC4C(C)(C)C(=O)CCC4(C)C3=CCC12C)C(=O)O (stereo unspecified) | inconclusive: 116% |
| CC1(C)OC(=O)C(=Cc2ccc(-c3ccc(S(N)(=O)=O)cc3)o2)C(=O)O1 | inactive: 93.7% |
| Nc1nc(NCc2ccco2)nc(NC2CCCCC2)c1[N+](=O)[O-] | inconclusive: 45.5% |
| Cc1c(NC(=S)N/N=C/c2cc([N+](=O)[O-])ccc2O)c(=O)n(-c2ccccc2)n1C | inconclusive: 121% |
| CC(=O)NNc1cc(C)nc(N)n1 | inconclusive: 79.6% |
| COc1ccccc1-c1c(C)nn2c(N3CCC(C)CC3)cc(C)nc12 | inconclusive: -296% |
| CCCc1cc(C(=O)N2CCN(C(c3ccccc3)c3ccccc3)CC2)no1 | inactive: 97% |

| Compound | binding response (% of control) |
| --- | --- |
| COc1ccc(N)cc1-n1cnnn1 | inconclusive: 112% |
| COc1cc(C2c3c(oc4ccccc4c3=O)C(=O)N2c2nccs2)ccc1O (stereo unspecified) | inconclusive: 121% |
| Cc1nn(Cc2nnc(SCC(=O)Nc3cccc(C(F)(F)F)c3)n2C)c(C)c1[N+](=O)[O-] | inconclusive: 107% |
| CC/C=C\[C@H](O)[C@H](O)C1=C(C)C(=O)[C@]2(O1)C(=O)N[C@@](OC)(C(=O)c1ccccc1)C2O (stereo partly specified) | inactive: 95.2% |
| COc1ccc(CCNC(=O)C2CC3Cn4c(nc5ccccc54)C3N2C)cc1 (stereo unspecified) | inconclusive: 68.2% |
| CN(C)S(=O)(=O)c1cccc(-c2nnc3n2CCCCC3)c1 | inconclusive: 75.9% |
| CCOC(=O)C1=NN(c2ccc(Cl)cc2)C(=O)C1 | inconclusive: 69.3% |
| CSCC[C@H](NC(=O)Nc1ccccc1C)C(=O)O | inconclusive: 103% |
| Cc1cc2ccccn2c1C(=O)c1ccc(NN)c([N+](=O)[O-])c1 | inconclusive: 84.2% |
| Cc1[nH]c2ccccc2c1C(=O)C(=O)N1CCN(C(=O)c2ccco2)CC1 | inactive: 105% |
| CC(/C=N/Nc1ccc2nncn2n1)=C\c1ccccc1 | inconclusive: 83% |
| COc1ccc(NS(=O)(=O)c2cccc(C(=O)N/N=C/c3cn(-c4ccccc4)nc3-c3ccccc3)c2)cc1 | inconclusive: 90.6% |
| CCN(CCO)c1ccc(N=Nc2cc(C)[nH]n2)cc1 | inconclusive: -17.2% |
| COc1ccc(-c2cccc([C@H]3[C@@H]4C=CCC[C@@]4(C)C(=O)N3Cc3ccccc3)c2)cc1 | inconclusive: 88.6% |
| CCOC(=O)c1nc(C)sc1-c1ccnn1S(=O)(=O)c1ccccc1C(F)(F)F | inconclusive: 102% |
| O=C(COC(=O)c1ccccc1Br)NCCC1=CCCCC1 | inconclusive: 100% |
| Oc1ccc(-c2csc(-c3cccnc3)n2)cc1O | inconclusive: 109% |
| CCc1nc2n(n1)C(O)c1cc([N+](=O)[O-])ccc1S2 (stereo unspecified) | inconclusive: 91.8% |
| CC(C)CCn1c(CN2CCN(Cc3ccccc3)CC2)nc2c1c(=O)[nH]c(=O)n2C | inactive: 126% |
| CC(C)OCC1CC(CC(=O)Nc2ccc([N+](=O)[O-])cc2)C(=O)O1 (stereo unspecified) | inactive: 95.5% |
| Cc1ccccc1-n1c(=O)n(Cc2ccccc2)c(=O)c2[nH]cnc21 | inconclusive: 82% |
| CC(C)(C)C(=O)Nc1sc(-c2ccccc2)cc1C(=O)O | inconclusive: 99.8% |
| O=C(c1ccc(S(=O)(=O)N2CCCCCC2)cc1)N(c1ccccn1)C1CCCCC1 | inconclusive: 104% |

Structures shown so far containing a cyano group:

| Compound | binding response (% of control) |
| --- | --- |
| CC1=NNC(=O)C1C(c1ccc(Cl)cc1)C(C#N)C#N (stereo unspecified) | inconclusive: 93% |
| N#CC1CN(Cc2ccccc2)CN(Cc2ccccc2)C1 | inconclusive: -245% |

Additional entries

| Compound | binding response (% of control) |
| --- | --- |
| CCc1cccc(CC)c1NC(=O)C1CC(=O)N(c2ccc3c(c2)OCCO3)C1 (stereo unspecified) | inactive: 87.8% |
| Cc1nn(C)c(Cl)c1C(=O)NCC(=O)NCc1ccccc1 | inactive: 99.5% |
| CN(C)S(=O)(=O)c1cccc(NC(=O)CCc2c[nH]c3ccccc23)c1 | inactive: 90.6% |
| CC1=NNC(=O)C1CC(=O)N/N=C/c1cccs1 (stereo unspecified) | inconclusive: 106% |
| CC(=O)Nc1ccc(S(=O)(=O)/N=C2\C(=O)c3ccccc3C([O-])=C2n2cc[n+](-c3ccccn3)c2)cc1 | inconclusive: 102% |
| O=C(/C=C/c1ccc2c(c1)OCO2)Nc1cccnc1 | inconclusive: 93.4% |
| CC(=O)NC1CC(C)(C)N(OC(C)=O)C(C)(C)C1 | inactive: 133% |
| NC(N)=NCC(O)CN(c1ccccc1)c1ccccc1 (stereo unspecified) | inconclusive: 121% |
| OCCN1CCOCCN(CCO)CCOCC1 | inactive: 96.4% |
| COc1ccccc1OCC(=O)N/N=C1/C=C(C)CC1 | inconclusive: 105% |
| Cc1cc2c(ncn2Cc2ccccc2)c(N)c1C | inconclusive: 88.9% |
| O=C(CNCc1ccc(Cl)cc1)Nc1ccc2c(c1)OCCO2 | inconclusive: 101% |
| O=C1CC(C(=O)Nc2ccc(F)cc2)n2cnnc2N1 (stereo unspecified) | inconclusive: 93.4% |
| CCCCCCN1C2=NCCCN2c2ccccc21 | inconclusive: 124% |
| O=C(COC(=O)C12CC3CC(CC(C3)C1)C2)Nc1ccccc1F | inactive: 96% |
| CCN(CC)c1ccc2c(C)c(CO)c(=O)oc2c1 | inconclusive: 106% |
| CCC(CC)C(=O)NCCc1ccc(OC)c(OC)c1 | inactive: 101% |
| S=c1[nH]c2ccccc2n2cccc12 | inconclusive: -79.5% |
| CC(=O)c1c(C)[nH]c(C(=O)OCC(=O)Nc2cc(Cl)ccc2[N+](=O)[O-])c1C | inactive: 98.3% |
| CCOC(=O)Cc1csc(NC(=O)/C=C/c2ccco2)n1 | inconclusive: 99.2% |
| O=C(Nc1ccc(F)cc1)Nc1ccccc1N1CCCCC1 | inconclusive: 122% |
| CN(NC(=O)c1ccccc1F)c1ncccc1[N+](=O)[O-] | inconclusive: 125% |
